Results on 2 molecules are retold here after doi:10.1101/292318.

Protein sequences, listed by entry. Tags and fused reporters are not part of them. Residues count along the entry.
UniProt P01731, residues 28-247: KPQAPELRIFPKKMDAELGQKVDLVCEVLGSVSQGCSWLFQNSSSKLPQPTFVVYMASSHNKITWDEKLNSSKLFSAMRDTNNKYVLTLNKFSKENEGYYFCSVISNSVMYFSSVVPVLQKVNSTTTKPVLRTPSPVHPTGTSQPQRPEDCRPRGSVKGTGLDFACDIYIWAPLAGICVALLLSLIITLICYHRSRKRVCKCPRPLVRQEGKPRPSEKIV

These are yes or no findings as the source states them, for the method shown. Some binding calls cover weakened binding; strength is not graded here. For some assays here: Tags and fused reporters may be left off the sequences shown.

Assay [1] concerns the target murine CD8α fused to eGFP or mCherry through a GSGGGS linker (murine) (UniProt P01731). In words: fluorescence cross-correlation spectroscopy.
In assay [2] the target is human rhomboid protease RHBDL2 fused to eGFP or mCherry at its N-terminus (human) (UniProt Q9NX52). The assay is described as follows: fluorescence cross-correlation spectroscopy.

In the case of “murine CD8α fused to eGFP or mCherry through a GSGGGS linker (from UniProt P01731 28-247) (receptor)”, the binding entry in assay [1] was “binds”.

B1: human rhomboid protease RHBDL2 fused to eGFP or mCherry at its N-terminus (enzyme, UniProt Q9NX52-1 1-303)
chain: MAAVHDLEMESMNLNMGREMKEELEEEEKMREDGGGKDRAKSKKVHRIVSKWMLPEKSRGTYLERANCFPPPVFIISISLAELAVFIYYAVWKPQKQWITLDTGILESPFIYSPEKREEAWRFISYMLVHAGVQHILGNLCMQLVLGIPLEMVHKGLRVGLVYLAGVIAGSLASSIFDPLRYLVGASGGVYALMGGYFMNVLVNFQEMIPAFGIFRLLIIILIIVLDMGFALYRRFFVPEDGSPVSFAAHIAGGFAGMSIGYTVFSCFDKALLKDPRFWIAIAAYLACVLFAVFFNIFLSPAN
Take B1: the binding result in assay [2] was “no binding”.
